Reference: paper PMC4106346, “The Oligomeric States of the Purified Sigma-1 Receptor Are Stabilized by Ligands” (The Journal of Biological Chemistry, 2014)
No constants are given. Whether binding was seen depends on the method and setting. Some entries that bind do so weakly or less than the wild type. For part of these data: Where a sequence is shown, tags or fusion partners need not be part of it.

Assays:
Test in all cases: TOXCAT (ToxR-driven CAT reporter of transmembrane self-association); TM domain between MBP and ToxR in the membrane of E. coli MM39; CAT activity of lysates as percent of glycophorin A
[1] = target: TM2 domain of S1R with G91I in the TOXCAT construct (guinea pig) (UniProt Q60492)
[2] = target: TM2 domain of S1R with the double mutation G87L/G88L in the TOXCAT construct (guinea pig) (UniProt Q60492)
[3] = target: TM2 domain of S1R in the TOXCAT construct (between MBP and ToxR) (guinea pig)

Binder: WVFVNAGGWMIAMCLLHASL (domain or fragment, UniProt Q60492 81-100) [TM2 domain of S1R with G91I in the TOXCAT construct]
- binding [1]: no binding

Binder: WVFVNALLWMGAMCLLHASL (domain or fragment, UniProt Q60492 81-100) [TM2 domain of S1R with the double mutation G87L/G88L in the TOXCAT construct]
- binding [2]: no binding

Binder: WVFVNAGGWMGAMCLLHASL (domain or fragment) [TM2 domain of S1R in the TOXCAT construct (between MBP and ToxR)]
- binding [3]: binds
